Our source for the cell number change and AC50 values is PubChem BioAssay AID2685 (National Center for Advancing Translational Sciences (NCATS), 2010).

This assay can be described thus: qHTS Assay for Lipid Storage Modulators in Drosophila S3 Cells.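 For cell number change: cells counted by Cell Tracker Red CMTPX staining in the red channel.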 The following applies: BODIPY lipid droplet fluorescence, 18-24 h; for cell number change: measured here: cell count max response, cells fed with added oleic acid. The gist of the method: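 Laser-scanning cytometry quantifies lipid droplet accumulation (500–530 nm total intensity; droplet/cell object ratio) in oleic acid-fed (400 uM added) Drosophila S3 cells treated with a concentration series. 20 uM Triacsin C defined 100% inhibition.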
For orientation: qHTS replaces the single test concentration by a dilution series.

[1] abbreviates: measured here: lipid fluorescence (Fed channel) AC50, cells fed with added oleic acid.
Where [2] appears, read: measured here: cell number channel AC50, cells fed with added oleic acid.

This is one part of the list. Shown are side measurements of this screen, not its main read-out; they come without a call. The list favours compounds with an active or inconclusive main result. Potencies come from curve fits of mixed quality, noted in brackets.

For the compound `O=C(NCCCN1CCCC1=O)c1ccccc1NS(=O)(=O)c1ccc(Br)cc1`, the cell number change is 0.694%.
With `O=C(CN1CCN(c2ccc(F)cc2)CC1)NC(=O)NCc1ccco1`, the cell number change worked out at 0.729%.
By AC50 is commonly meant the midpoint of the concentration-response curve, whichever way the signal moves. With `CCn1c2ccccc2c2cnc(N=CN(C)C)c(C#N)c21`, the cell number change was -1.04%. Moreover, the AC50 under setting [1] was 0.116 µM [rising, partial curve].
Regarding `COc1cc2c3nnc(-c4ccc(F)cc4)c-3cn(Cc3cccc(C)c3)c2cc1OC`, the cell number change turned out to be 8.69%. Also, the AC50 under setting [1] was 11.6 µM [falling, partial curve].
Regarding `Cc1nccn1-c1ccc(C(F)(F)F)cc1NC=O`, the cell number change turned out to be 8.51%.
On to `O=C(CNC(=O)c1cccs1)c1ccc([N+](=O)[O-])cc1`, for which the cell number change is -2.53%. In addition, under setting [1], the AC50 was 0.00411 µM [falling, full curve, poor fit].
`COC(=O)c1[nH]c2ccccc2c1NC(=O)CN1CCCc2ccccc21`: the cell number change is -62.7%. In addition, the AC50 under setting [2] was 23.1 µM [falling, single point]. Moreover, the AC50 under setting [1] is 32.6 µM [falling, partial curve, poor fit].
In the case of `Cn1nc(C(=O)OCC(=O)Nc2cc(Cl)ccc2C#N)c2ccccc2c1=O`, the cell number change was -49%. Also, under setting [2], the half-maximal activity concentration (AC50) was 29.1 µM [falling, single point]. The concentration at half-maximal activity (AC50) under setting [1] is 18.4 µM [falling, single point].
`Cc1ccc(-c2cc(C(=O)N/N=C/C=C/c3ccccc3)n[nH]2)o1`: the cell number change is -8.32%. Moreover, the AC50 under setting [1] is 3.66 µM [falling, single point].
As to `Cc1ccc(S(=O)(=O)N/N=C\c2cn(CC(N)=O)c3ccccc23)cc1`, the cell number change was determined as 17.8%. Further, the AC50 under setting [1] was 29.1 µM [rising, single point].
On to `C/C(=N\OC(=O)c1ccc(C)cc1)c1sc(C)nc1C`, for which the cell number change was 31.4%. For the same compound, the AC50 under setting [2] is 20.6 µM [rising, single point].
Consider `COC(=O)CCN(C(=O)c1ccc(N2CCCC2)c([N+](=O)[O-])c1)c1ccccn1`, for which the AC50 under setting [2] was 0.731 µM [falling, single point].
In the case of `COC(=O)c1ccc(CNC(=O)COC(=O)c2ccc(N(C)C)cc2)cc1`, the cell number change is -90.5%. Moreover, the AC50 under setting [2] was 29.1 µM [falling, single point].
Take `Nc1nonc1-n1nnc(C(=O)N/N=C/c2cccc(O)c2)c1CN1CCCC1`: the cell number change is -18.7%. The AC50 under setting [1] is 0.13 µM [falling, full curve, poor fit].
In the case of `CCN1C(=O)c2ccc(C(=O)Nc3ccc(O)cc3C)cc2C1=O`, the cell number change is -20.7%. For the same compound, under setting [1], the AC50 is 29.1 µM [falling, single point].
In the case of `Cc1cccc(C(=O)OCC(=O)NCC(C)C)c1O`, the cell number change amounted to 94.5%. For the same compound, the half-maximal activity concentration (AC50) under setting [2] is 7.31 µM [rising, partial curve]. Moreover, under setting [1], the AC50 is 11.6 µM [rising, partial curve].
For `CC(=O)c1cnc(SCCN2C(=O)c3ccccc3C2=O)nc1C`, the cell number change was 15.1%.
In the case of `Cc1cccc(NC(=O)c2nc[nH]c2C(=O)NCc2ccccc2)c1`, the cell number change was -54.9%. For the same compound, under setting [2], the AC50 was 4.11 µM [falling, single point].
On to `COC(=O)C1=C(C)NC(C)=C(C(=O)OC)C1c1ccc2ccccc2n1`, for which the cell number change worked out at 41.9%. Under setting [2], the AC50 is 18.4 µM [rising, single point]. For the same compound, the concentration at half-maximal activity (AC50) under setting [1] is 0.651 µM [rising, single point].
Take `C=CCN(CC=C)S(=O)(=O)c1ccc(C(=O)Nc2nnc(COC)o2)cc1`: the cell number change is -67.7%. The AC50 under setting [2] was 1.3 µM [falling, partial curve]. Besides, the AC50 under setting [1] is 20.6 µM [falling, single point].
`Cc1nn(-c2ccccc2)c(N)c1C(c1ccc(C(C)C)cc1)c1c(C)nn(-c2ccccc2)c1N`: the cell number change came to 90.7%. Moreover, under setting [2], the AC50 is 29.1 µM [rising, single point]. Further, the AC50 under setting [1] was 25.9 µM [rising, single point].
Take `S=c1[nH]cc(-c2ccccc2)n1-c1cccc(Cl)c1`: the cell number change was -37.8%. Also, under setting [2], the AC50 is 9.2 µM [falling, partial curve, poor fit]. In addition, the AC50 under setting [1] was 32.6 µM [rising, partial curve, poor fit].
Take `N#Cc1ccc2[nH]cc(CCO)c2c1`: the cell number change is -8.68%. The AC50 under setting [1] was 29.1 µM [falling, single point].
With `Cc1nnc(SCC(=O)Nc2ccc3c(c2)OCCO3)n1N`, the cell number change is -29.6%. For the same compound, the AC50 under setting [2] is 4.11 µM [falling, full curve, poor fit]. Under setting [1], the AC50 was 18.4 µM [falling, partial curve].
For `S=c1[nH]nc(-c2ccc3ccccc3n2)o1`, the cell number change turned out to be 83.1%. For the same compound, the AC50 under setting [2] was 23.1 µM [rising, partial curve]. The AC50 under setting [1] was 0.116 µM [rising, full curve, poor fit].
With `O=C(Cc1ccccc1)N1CCN(C(=O)c2cccs2)CC1`, the cell number change was 1.08%.
In the case of `CC(=O)c1cccc(NC(=O)Cn2cc3c(n2)CCCC3)c1`, the cell number change was determined as 25%. Further, the AC50 under setting [1] was 16.4 µM [rising, single point].
For `CCCc1nc(Nc2nc3ccccc3o2)nc(C)c1C(=O)OCC`, the cell number change is -18.4%.
`CC1=C(C)CC(C(=O)NCCc2ccccc2)C(C(=O)O)C1` (stereo not drawn): under setting [1], the AC50 was 5.8 µM [falling, partial curve].
Regarding `COC(=O)COC(=O)c1ccc(O)cc1`, the cell number change was -4.45%.
In the case of `O=C(CSc1nnnn1-c1ccccc1)Nc1ncc2c(n1)CC(c1ccco1)CC2=O` (stereo not drawn), the cell number change is -35.9%. In addition, under setting [2], the AC50 is 7.31 µM [falling, partial curve]. In addition, the AC50 under setting [1] was 0.082 µM [rising, full curve, poor fit].
`O=C(COC(=O)C1CCC1)Nc1cccc(Cl)c1`: the cell number change is -30.5%. Moreover, the half-maximal activity concentration (AC50) under setting [2] is 1.3 µM [falling, full curve, poor fit].
Regarding `Cc1ccc(-n2ncc3c(=O)n(CC(=O)N(C)C)cnc32)cc1`, the cell number change was 19.9%. For the same compound, the AC50 under setting [1] is 0.0731 µM [rising, full curve, poor fit].
Consider `Nc1nnc(SCC(=O)NC23CC4CC(CC(C4)C2)C3)s1`, for which the cell number change turned out to be 5.88%.
Take `NC(=O)NC(Cc1ccccc1)C(=O)NCCCSc1ccccc1` (stereo not drawn): the AC50 under setting [1] is 14.6 µM [rising, partial curve].
In the case of `CC1Cc2cc(/C(O)=C3\C(=O)C(=O)N(CCN(C)C)C3c3ccccc3F)ccc2O1` (stereo not drawn), the cell number change is -46.5%. For the same compound, the AC50 under setting [2] was 2.59 µM [falling, full curve]. For the same compound, the AC50 under setting [1] is 29.1 µM [falling, single point].
In the case of `COc1nccnc1NS(=O)(=O)c1ccc(NS(=O)(=O)c2ccc(NC(C)=O)cc2)cc1`, the cell number change is -47.9%. Moreover, the AC50 under setting [2] is 20.6 µM [falling, single point]. Further, the AC50 under setting [1] is 23.1 µM [rising, single point].
In the case of `CCn1c(-c2ccc(Cl)cc2)n[nH]c1=S`, the cell number change amounted to 53.3%. Moreover, under setting [2], the AC50 is 13 µM [rising, partial curve]. Moreover, the AC50 under setting [1] was 25.9 µM [rising, single point].
